Measured values reported in the supplement of paper PMC4862054.
Small differences around the control level are noise.

Key:
Assay in all cases: normalised response (% of control), CellTox Green; higher = less cell death (100 = DMSO, 0 = benzethonium chloride kill control)
Conditions in all cases: incubation time: 72 h
[1] = test system: BT-474
Method: (§1)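 DSRT, 72 h incubation, CellTox Green / CellTiter-Glo readout. Signal is normalised to DMSO and benzethonium chloride controls. Value is the normalised response at the lowest tested concentration.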

[2] = test system: BT-549
Method: as §1

[3] = test system: CAL-120
Method: as §1

[4] = test system: CAL-148
Method: as §1

[5] = test system: CAL-51
Method: as §1

[6] = test system: CAL-85-1
Method: as §1

[7] = test system: DU-4475
Method: as §1

[8] = test system: HCC1143
Method: as §1

[9] = test system: HCC1599
Method: as §1

[10] = test system: HCC1937
Method: as §1

[11] = test system: HDQ-P1
Method: as §1

[12] = test system: Hs578T
Method: as §1

[13] = test system: MCF-10A
Method: as §1

[14] = test system: MDA-MB-436
Method: as §1

[15] = test system: MDA-MB-453
Method: as §1

[16] = test system: MDA-MB-468
Method: as §1

[17] = test system: MFM-223
Method: as §1

[18] = test system: MDA-MB-231
Method: as §1

| SMILES | normalised response [1] | normalised response [2] | normalised response [3] | normalised response [4] | normalised response [5] | normalised response [6] | normalised response [7] | normalised response [8] | normalised response [9] | normalised response [10] | normalised response [11] | normalised response [12] | normalised response [13] | normalised response [14] | normalised response [15] | normalised response [16] | normalised response [17] | normalised response [18] |
| --- | --- | --- | --- | --- | --- | --- | --- | --- | --- | --- | --- | --- | --- | --- | --- | --- | --- | --- |
| O=C(Nc1c[nH]nc1-c1nc2ccc(CN3CCOCC3)cc2[nH]1)NC1CC1 [AT9283] (0.1 nM) | 104% | 100% | -16.4% | 86.5% | 113% | 93.6% | 99.1% | 112% | 104% | 104% | 96.8% | 101% | 99.5% | 95.7% | 117% | 125% | 101% | – |
| CNC(=O)c1cc(Oc2ccc(NC(=O)Nc3ccc(Cl)c(C(F)(F)F)c3)c(F)c2)ccn1 [Regorafenib] (1 nM) | 102% | 100% | 101% | 88.6% | 121% | 102% | 94.1% | 117% | 102% | 59.1% | 95.1% | 99.9% | 109% | 67.5% | 107% | – | 97.5% | 103% |
| N#CCNC(=O)c1ccc(-c2ccnc(Nc3ccc(N4CCOCC4)cc3)n2)cc1 [Momelotinib] (1 nM) | 93.8% | 83.5% | 101% | 101% | 106% | 101% | 97.6% | 98.2% | 100% | 102% | 103% | – | 92.8% | 87.4% | 95.1% | 112% | 89.4% | 101% |
| CCCS(=O)(=O)Nc1ccc(F)c(C(=O)c2c[nH]c3ncc(-c4ccc(Cl)cc4)cc23)c1F [Vemurafenib] (1 nM) | 92.7% | 95% | 96% | 86% | 99.9% | 102% | 96.1% | 51.2% | 93.7% | 103% | 94.2% | – | 75.1% | – | 101% | 60.1% | 98.4% | 82.9% |
| COc1cc2c(cc1O)CC[C@@H]1[C@@H]2CC[C@]2(C)[C@@H](O)CC[C@@H]12 [2-methoxyestradiol] (1 nM) | 100% | 90.4% | 102% | 104% | 123% | 100% | 97.5% | – | 89.7% | – | – | 102% | 109% | – | 101% | 80.6% | 91.7% | 100% |
| O=NN(CCCl)C(=O)NC1CCCCC1 [Lomustine] (1 nM) | 98.5% | 71.6% | 101% | 90% | 103% | 101% | 101% | 63.5% | 102% | 93.6% | 76.1% | 93.7% | 107% | 90.6% | 73.2% | 59.5% | – | 74% |
